According to paper PMC12130296:
These are yes or no findings as the source states them, for the method shown. In cells and extracts the contact can be indirect. Here binding means that the protein was enriched with, or labelled near, the bait; the list need not be complete. For some assays here: No binding means not detected with the bait.

Amino acid sequences for entries named in this document (tags omitted). A change or cut given only in a name is not applied to a line headed by its entry.
UniProt Q13158: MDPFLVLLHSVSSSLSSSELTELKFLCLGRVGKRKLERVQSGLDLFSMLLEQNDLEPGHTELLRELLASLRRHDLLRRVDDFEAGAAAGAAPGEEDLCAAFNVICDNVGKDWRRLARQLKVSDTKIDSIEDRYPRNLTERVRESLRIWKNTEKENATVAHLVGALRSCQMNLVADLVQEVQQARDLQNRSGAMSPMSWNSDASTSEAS
UniProt P48023: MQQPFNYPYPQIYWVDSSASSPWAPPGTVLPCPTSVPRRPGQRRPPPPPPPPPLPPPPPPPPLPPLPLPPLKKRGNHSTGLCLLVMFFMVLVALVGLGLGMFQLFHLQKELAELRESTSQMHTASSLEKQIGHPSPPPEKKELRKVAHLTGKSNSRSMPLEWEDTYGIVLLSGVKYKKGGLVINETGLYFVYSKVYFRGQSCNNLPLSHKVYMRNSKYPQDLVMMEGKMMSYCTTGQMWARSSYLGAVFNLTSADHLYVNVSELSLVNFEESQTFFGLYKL
UniProt Q9Y572: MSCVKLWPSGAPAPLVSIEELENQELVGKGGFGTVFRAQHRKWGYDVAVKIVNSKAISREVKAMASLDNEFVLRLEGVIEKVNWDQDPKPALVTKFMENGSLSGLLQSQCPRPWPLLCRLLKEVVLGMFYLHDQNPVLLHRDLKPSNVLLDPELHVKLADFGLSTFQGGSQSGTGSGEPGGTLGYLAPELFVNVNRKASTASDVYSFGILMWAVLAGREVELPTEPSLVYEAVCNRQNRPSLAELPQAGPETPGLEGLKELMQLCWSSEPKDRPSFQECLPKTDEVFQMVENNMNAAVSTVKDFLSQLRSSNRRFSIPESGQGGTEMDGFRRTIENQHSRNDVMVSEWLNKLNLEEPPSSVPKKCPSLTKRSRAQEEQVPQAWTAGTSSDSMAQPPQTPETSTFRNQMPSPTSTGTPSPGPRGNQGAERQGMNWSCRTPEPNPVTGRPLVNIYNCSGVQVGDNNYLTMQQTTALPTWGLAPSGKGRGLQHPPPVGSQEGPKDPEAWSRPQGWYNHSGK

T1: MLKL (human (endogenous in HT29, SUIT-020 and Jurkat)) (UniProt Q8NB16)
T1 sequence: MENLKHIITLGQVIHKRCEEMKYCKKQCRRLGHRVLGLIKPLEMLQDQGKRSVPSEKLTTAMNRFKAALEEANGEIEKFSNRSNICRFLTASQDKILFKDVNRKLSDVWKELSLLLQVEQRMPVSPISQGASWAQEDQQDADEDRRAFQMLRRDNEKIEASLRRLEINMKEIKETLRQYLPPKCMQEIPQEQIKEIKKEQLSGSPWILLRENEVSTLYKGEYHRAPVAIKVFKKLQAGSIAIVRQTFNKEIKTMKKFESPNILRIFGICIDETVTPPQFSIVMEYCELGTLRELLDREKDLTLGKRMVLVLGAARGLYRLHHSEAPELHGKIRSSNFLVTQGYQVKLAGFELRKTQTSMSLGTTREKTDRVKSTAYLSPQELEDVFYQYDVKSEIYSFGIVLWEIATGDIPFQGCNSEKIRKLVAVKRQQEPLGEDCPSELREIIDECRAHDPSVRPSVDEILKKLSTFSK

T2: MLKL (human (endogenous in HT29, SUIT-020 and Jurkat)), Q8NB16
T2 chain: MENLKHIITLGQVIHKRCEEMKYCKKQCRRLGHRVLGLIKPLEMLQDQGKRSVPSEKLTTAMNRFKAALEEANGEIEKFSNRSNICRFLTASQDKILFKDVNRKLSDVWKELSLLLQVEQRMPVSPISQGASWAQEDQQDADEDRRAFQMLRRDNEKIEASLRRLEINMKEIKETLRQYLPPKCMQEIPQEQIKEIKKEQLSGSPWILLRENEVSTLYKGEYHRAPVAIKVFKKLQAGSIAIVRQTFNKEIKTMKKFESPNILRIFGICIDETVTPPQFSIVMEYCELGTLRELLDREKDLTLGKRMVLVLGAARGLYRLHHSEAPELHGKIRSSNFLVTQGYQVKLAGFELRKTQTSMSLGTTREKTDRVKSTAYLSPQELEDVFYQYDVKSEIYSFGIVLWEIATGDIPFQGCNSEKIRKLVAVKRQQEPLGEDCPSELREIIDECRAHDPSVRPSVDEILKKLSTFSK


How the values were obtained:
[1] = target: FADD (human (endogenous in HT29, SUIT-020 and Jurkat)) (UniProt Q13158); test: affinity purification with mass spectrometry; qualitative analysis of pRIPK1-, FADD- and c-FLIP-IPs from HT29 cells, BV6/zVAD-fmk 1 h then 500 ng/ml CD95L 5 h; untreated and beads-only controls
[2] = target: phosphorylated form of RIPK1 (pRIPK1) (human (endogenous in HT29, SUIT-020 and Jurkat)) (UniProt Q13546); test: as above
[3] = target: FADD (human (endogenous in HT29, SUIT-020 and Jurkat)) (UniProt Q13158); test: affinity purification with mass spectrometry; quantitative AQUA peptide analysis (100 fmol of each heavy peptide) of pRIPK1-, FADD-, c-FLIP- and MLKL-IPs from HT29 cells and pRIPK1- and FADD-IPs from SUIT-020 cells after CD95L/BV6/zVAD-fmk
[4] = target: phosphorylated form of RIPK1 (pRIPK1) (human (endogenous in HT29, SUIT-020 and Jurkat)) (UniProt Q13546); test: as above
[5] = target: T1, MLKL (human (endogenous in HT29, SUIT-020 and Jurkat)); test: as above
[6] = target: T2, MLKL (human (endogenous in HT29, …)); test: as above; settings: remark: other sources report otherwise

| binding [1] | binding [2] | Molecule | also measured |
| --- | --- | --- | --- |
| no binding | no binding | Recombinant LZ-CD95L (from UniProt P48023) (ligand) | – |
| binds | binds | RIPK3 (from UniProt Q9Y572 1-518) | binding [3]: binds; binding [4]: binds |
| – | – | FADD (from UniProt Q13158 1-208) | binding [5]: binds |
| – | – | RIPK1, Q13546 1-671 (protein) MQPDMSLNVIKMKSSDFLESAELDSGGFGKVSLCFHRTQGLMIMKTVYKGPNCIEHNEALLEEAKMMNRLRHSRVVKLLGVIIEEGKYSLVMEYMEKGNLMHVLKAEMSTPLSVKGRIILEIIEGMCYLHGKGVIHKDLKPENILVDNDFHIKIADLGLASFKMWSKLNNEEHNELREVDGTAKKNGGTLYYMAPEHLNDVNAKPTEKSDVYSFAVVLWAIFANKEPYENAICEQQLIMCIKSGNRPDVDDITEYCPREIISLMKLCWEANPEARPTFPGIEEKFRPFYLSQLEESVEEDVKSLKKEYSNENAVVKRMQSLQLDCVAVPSSRSNSATEQPGSLHSSQGLGMGPVEESWFAPSLEHPQEENEPSLQSKLQDEANYHLYGSRMDRQTKQQPRQNVAYNREEERRRRVSHDPFAQQRPYENFQNTEGKGTAYSSAASHGNAVHQPSGLTSQPQVLYQNNGLYSSHGFGTRPLDPGTAGPRVWYRPIPSHMPSLHNIPVPETNYLGNTPTMPFSSLPPTDESIKYTIYNSTGIQIGAYNYMEIGGTSSSLLDSTNTNFKEEPAAKYQAIFDNTTSLTDKHLDPIRENLGKHWKNCARKLGFTQSQIDEIDHDYERDGLKEKVYQMLQKWVMREGIKGATVGKLAQALHQCSRIDLLSSLIYVSQN | binding [6]: binds |
